The supplement of paper PMC10849652
The other results are listed elsewhere or left out.

Amino acid sequences for entries named in this document (tags omitted). A change or cut given only in a name is not applied to a line headed by its entry.
UniProt P50583: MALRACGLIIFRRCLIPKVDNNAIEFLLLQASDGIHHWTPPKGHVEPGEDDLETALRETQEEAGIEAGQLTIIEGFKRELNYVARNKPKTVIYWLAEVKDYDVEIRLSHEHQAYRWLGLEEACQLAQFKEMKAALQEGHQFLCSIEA
UniProt Q08J23, whole entry, looked up: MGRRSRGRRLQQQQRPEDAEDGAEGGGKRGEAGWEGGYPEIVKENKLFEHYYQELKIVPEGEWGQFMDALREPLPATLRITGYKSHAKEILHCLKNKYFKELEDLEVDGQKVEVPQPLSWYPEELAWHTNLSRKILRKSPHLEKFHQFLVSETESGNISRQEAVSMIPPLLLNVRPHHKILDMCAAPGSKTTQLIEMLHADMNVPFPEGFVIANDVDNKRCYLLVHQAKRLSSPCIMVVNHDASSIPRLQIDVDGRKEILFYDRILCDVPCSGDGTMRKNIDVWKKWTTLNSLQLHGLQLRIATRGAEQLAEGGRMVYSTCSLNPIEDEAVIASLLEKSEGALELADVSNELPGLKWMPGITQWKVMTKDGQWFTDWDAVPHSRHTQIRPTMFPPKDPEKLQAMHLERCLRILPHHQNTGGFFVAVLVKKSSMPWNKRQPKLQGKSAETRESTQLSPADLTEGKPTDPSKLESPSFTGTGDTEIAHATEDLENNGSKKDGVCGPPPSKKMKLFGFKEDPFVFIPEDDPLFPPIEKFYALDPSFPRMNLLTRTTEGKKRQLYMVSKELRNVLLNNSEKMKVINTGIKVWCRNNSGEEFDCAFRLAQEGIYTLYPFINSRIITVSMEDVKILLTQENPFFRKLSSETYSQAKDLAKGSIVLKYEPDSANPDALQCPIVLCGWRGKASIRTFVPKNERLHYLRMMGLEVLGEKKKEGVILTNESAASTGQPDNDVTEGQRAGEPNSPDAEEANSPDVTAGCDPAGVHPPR
UniProt Q92636: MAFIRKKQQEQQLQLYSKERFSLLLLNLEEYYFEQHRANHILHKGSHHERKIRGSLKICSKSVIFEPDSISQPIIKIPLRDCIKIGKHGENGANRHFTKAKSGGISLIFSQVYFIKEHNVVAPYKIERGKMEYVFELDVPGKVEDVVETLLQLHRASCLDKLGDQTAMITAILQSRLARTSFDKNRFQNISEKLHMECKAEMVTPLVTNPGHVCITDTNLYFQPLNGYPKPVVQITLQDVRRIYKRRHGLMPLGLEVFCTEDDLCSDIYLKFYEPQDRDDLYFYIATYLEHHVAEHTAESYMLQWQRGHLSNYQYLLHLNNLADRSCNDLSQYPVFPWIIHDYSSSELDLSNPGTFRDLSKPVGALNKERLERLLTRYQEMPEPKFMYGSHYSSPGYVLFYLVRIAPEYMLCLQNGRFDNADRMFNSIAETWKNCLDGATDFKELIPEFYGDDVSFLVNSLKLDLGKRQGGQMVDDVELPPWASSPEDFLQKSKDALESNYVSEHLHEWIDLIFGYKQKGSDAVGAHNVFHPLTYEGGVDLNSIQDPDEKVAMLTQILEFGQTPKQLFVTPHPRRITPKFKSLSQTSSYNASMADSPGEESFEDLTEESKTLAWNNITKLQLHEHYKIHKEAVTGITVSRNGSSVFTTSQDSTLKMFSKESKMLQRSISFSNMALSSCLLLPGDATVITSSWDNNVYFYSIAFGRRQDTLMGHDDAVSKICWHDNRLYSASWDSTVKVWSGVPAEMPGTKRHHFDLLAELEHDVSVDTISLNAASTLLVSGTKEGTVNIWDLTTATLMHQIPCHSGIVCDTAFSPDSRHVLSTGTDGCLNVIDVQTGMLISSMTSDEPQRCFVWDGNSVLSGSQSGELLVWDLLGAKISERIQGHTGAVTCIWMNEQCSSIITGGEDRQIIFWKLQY
UniProt P40261: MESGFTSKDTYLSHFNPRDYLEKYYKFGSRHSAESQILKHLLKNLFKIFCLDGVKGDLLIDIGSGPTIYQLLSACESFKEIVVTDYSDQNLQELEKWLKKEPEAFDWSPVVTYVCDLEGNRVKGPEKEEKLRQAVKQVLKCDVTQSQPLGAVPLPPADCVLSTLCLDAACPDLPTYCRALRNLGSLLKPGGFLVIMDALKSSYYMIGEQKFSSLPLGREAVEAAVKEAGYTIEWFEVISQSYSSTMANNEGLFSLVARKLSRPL
UniProt P49757: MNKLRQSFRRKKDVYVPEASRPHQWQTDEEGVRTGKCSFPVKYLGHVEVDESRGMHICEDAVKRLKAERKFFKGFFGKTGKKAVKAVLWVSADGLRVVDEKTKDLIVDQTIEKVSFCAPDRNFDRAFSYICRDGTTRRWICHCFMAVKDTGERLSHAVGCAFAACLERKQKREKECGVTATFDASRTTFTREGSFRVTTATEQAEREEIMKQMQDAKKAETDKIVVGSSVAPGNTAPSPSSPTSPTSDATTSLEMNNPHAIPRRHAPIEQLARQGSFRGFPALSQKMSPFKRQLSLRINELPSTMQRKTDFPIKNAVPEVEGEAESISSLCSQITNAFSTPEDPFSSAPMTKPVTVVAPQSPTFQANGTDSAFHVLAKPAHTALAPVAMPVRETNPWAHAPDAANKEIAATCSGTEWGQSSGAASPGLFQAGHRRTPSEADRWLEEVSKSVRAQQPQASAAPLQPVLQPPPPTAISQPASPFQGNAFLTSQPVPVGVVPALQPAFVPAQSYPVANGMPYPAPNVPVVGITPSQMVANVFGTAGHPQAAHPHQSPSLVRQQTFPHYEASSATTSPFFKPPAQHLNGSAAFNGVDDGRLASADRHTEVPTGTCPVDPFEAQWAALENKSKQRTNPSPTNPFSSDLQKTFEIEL
UniProt Q5SY16: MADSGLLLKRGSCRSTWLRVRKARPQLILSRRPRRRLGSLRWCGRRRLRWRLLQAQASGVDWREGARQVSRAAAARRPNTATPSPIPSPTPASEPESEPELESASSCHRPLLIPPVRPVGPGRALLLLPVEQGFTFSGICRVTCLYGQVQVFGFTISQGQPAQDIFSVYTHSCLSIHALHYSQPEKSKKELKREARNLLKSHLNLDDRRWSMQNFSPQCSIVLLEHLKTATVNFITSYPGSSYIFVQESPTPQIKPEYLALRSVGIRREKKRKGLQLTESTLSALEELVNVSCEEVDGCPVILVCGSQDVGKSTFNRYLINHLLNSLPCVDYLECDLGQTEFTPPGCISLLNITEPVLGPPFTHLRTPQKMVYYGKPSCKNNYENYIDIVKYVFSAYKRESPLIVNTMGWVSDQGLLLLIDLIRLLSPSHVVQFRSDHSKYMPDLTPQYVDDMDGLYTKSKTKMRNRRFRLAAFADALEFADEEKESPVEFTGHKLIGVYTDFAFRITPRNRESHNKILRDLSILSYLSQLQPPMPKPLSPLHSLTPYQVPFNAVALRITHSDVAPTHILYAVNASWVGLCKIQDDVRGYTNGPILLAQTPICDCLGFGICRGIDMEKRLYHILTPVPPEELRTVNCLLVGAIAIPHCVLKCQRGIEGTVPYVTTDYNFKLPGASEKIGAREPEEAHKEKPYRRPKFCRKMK
UniProt Q9H8H0: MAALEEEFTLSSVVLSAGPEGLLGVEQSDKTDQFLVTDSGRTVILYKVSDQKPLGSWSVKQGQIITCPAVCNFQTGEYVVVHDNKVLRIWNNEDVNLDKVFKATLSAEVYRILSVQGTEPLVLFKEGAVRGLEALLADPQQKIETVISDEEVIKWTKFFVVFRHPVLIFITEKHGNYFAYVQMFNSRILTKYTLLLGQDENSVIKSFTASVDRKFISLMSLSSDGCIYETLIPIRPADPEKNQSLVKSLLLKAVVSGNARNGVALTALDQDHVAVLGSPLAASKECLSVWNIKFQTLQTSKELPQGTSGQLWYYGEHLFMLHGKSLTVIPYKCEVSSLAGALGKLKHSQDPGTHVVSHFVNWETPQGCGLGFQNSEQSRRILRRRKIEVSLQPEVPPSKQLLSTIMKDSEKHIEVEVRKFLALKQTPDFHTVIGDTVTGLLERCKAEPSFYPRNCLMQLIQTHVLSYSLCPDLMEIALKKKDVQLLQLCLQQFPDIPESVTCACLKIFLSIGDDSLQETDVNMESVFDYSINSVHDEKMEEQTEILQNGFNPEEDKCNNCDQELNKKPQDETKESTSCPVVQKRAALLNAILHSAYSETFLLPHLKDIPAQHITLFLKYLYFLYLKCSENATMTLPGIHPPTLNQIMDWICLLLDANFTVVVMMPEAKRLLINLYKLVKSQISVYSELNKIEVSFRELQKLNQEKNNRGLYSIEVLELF
UniProt P15531, whole entry, looked up: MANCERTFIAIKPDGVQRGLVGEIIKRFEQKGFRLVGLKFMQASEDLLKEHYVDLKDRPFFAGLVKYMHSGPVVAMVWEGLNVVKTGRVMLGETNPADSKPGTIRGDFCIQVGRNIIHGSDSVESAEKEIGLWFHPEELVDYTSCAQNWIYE

Columns and labels:
Assay in all cases: log2 fold change, soluble protein after heating vs DMSO (PISA); higher = thermal stabilisation; K562 lysate, 10 uM; active = over 0.2 and 3.5 SD of the protein, either way, in both replicates (recomputed)
[1] = compound: C1=CC=C(C=C1)[C@H](COC2=CC3=C(C=C2)NC(=O)N3)NC(=O)C4=CC=CN(C4=O)CC5=CC(=C(C=C5)F)F
Method in brief: (§1)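 Following dounce homogenisation of K562 pellets in PBS pH 7.4 with 1 mM MgCl2, crude extract at 1 mg/mL protein was incubated for 30 min with 10 μM compound. Aliquots were then heated for 3 min over 48°C-58°C and pooled, NP-40 was added to 0.5% at 4°C, and soluble protein was recovered as the supernatant at 21,000xg for 90 min. Channel-sum-equalised TMTpro 16plex LC-MS/MS quantified this protein. Each value, from duplicates, is a log-two fold change in thermal stability relative to solvent controls.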

[2] = compound: CC1=C(SC2=C1C(=N[C@H](C3=NN=C(N32)C)CC(=O)N)C4=CC=C(C=C4)Cl)C
Method in brief: as §1

[3] = compound: CC1=C2C(=CC=C1)N=C(N(C2=O)C3=CC=CC=C3C)CN4C=NC5=C(N=CN=C54)N
Method in brief: as §1

[4] = compound: Cc1sc2c(c1C)C(c1ccc(Cl)cc1)=N[C@@H](CC(=O)OC(C)(C)C)c1nnc(C)n1-2
Method in brief: as §1

[5] = compound: c1ccc([C@@H]2C[C@H]2NC2CCNCC2)cc1
Method in brief: as §1

Measured: log2 fold change

NUDT2 (UniProt P50583)
inactive: [1] -0.008 | [2] 0.001 | [3] -0.011 | [4] 0.036 | [5] -0.033

NOP53 (UniProt Q9NZM5)
inactive: [1] 0.01 | [2] 0.059 | [3] 0.033 | [4] 0.044 | [5] 0.187

NSUN2 (UniProt Q08J23)
inactive: [1] -0.016 | [2] 0.011 | [3] -0.009 | [4] 0.021 | [5] 0.019

NSMAF (UniProt Q92636)
inactive: [1] 0.048 | [2] -0.025 | [3] -0.001 | [4] -0.033 | [5] 0.012

Two successive records out of the list so far:
NSUN2 (UniProt Q08J23)
inactive: [1] -0.016 | [2] 0.011 | [3] -0.009 | [4] 0.021 | [5] 0.019

NSMAF (UniProt Q92636)
inactive: [1] 0.048 | [2] -0.025 | [3] -0.001 | [4] -0.033 | [5] 0.012

Remaining list, next part.

NNMT (UniProt P40261)
inactive: [1] 0.003 | [2] 0.05 | [3] 0.027 | [4] -0.011 | [5] -0.027

NUMB (UniProt P49757)
inactive: [1] 0.001 | [2] 0.034 | [3] 0.009 | [4] 0.004 | [5] -0.032

NOL9 (UniProt Q5SY16)
inactive: [1] -0.024 | [2] 0.046 | [3] -0.037 | [4] 0.033 | [5] 0.048

NOL11 (UniProt Q9H8H0)
inactive: [1] 0.042 | [2] 0.001 | [3] 0.027 | [4] 0.007 | [5] -0.029

NME1 isoform 2 (UniProt P15531)
inactive: [1] 0.031 | [2] 0.067 | [3] -0.064 | [4] -0.005 | [5] 0.053
